The results are deposited in PubChem (AID1159506; NCATS, 2015).

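Genome-wide siRNA knockdown in TC32 Ewing sarcoma cells, comparing luciferase light from an NR0B1-promoter reporter with a CMV-promoter reporter 48 hours after transfection.
Each siRNA was applied at 20 nM.
A z-score of the log NR0B1-over-CMV signal, less the median of siRNAs with the same seed; more negative means a stronger specific loss of the NR0B1 reporter.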

This is part of the screen; most of the strongest results are not listed here.
Sequences are the guide (antisense) strand, without overhang.

strand,target gene,seed-corrected z-score
UCCCUUACAGAGGUCAUGC,ANK1,0.02055
AUCACGGUAAGUAUAAUCU,RBMX,-1.765
AACUGGUCUGUAAAGAUGC,BCL6,0.6284
AAAGUGCGGAUUUCCAUGG,MAN2B1,0.2602
AUAGAACCAAAAAUCUUCC,KCND2,-0.3361
UUGUAGACAACUUAUGCUC,IGBP1P2,0.6063
AAAGCUACCAUGGAUGAUG,DUOX1,0.2929
UUACUGUCUCCUCUAAUAU,INA,-0.304
UAUGUCAUCAGUAAUGUCA,LALBA,0.3672
UCUAUUCCCAACAUUGUCC,GPATCH2,0.2656
UUCGUUAAGUGAAAUACCA,C9orf153,0.6119
UCACUUCCCAAUCACUACG,EIF3D,-0.5687
UCAGAGACAACAAGAAUGC,BEGAIN,-0.04983
CAUGGAACGGCCUAACUGG,SPDYE5,0.5433
UAAAGCUCUAGACCAAUGC,SCPEP1,0.3884
AAUGGAUCCCAGGUAUUGG,RUNX1,-0.6562
ACAAGUACGAUUGUUGCAC,RPL32P16,-1.703
UAUUGAAGCACAUUGCUCU,CLEC6A,-0.4045
UGGGUUUUCUUGGUAUGUC,ALG1L8P,0.8605
UCACAGAUCACGUCAUCGC,COL1A1,-0.4672
UUACUUCUCCUGCGGAUGG,PHACTR1,-0.09276
AGACGUAGUAGAGACGCCG,CLEC11A,-0.6809
UUAUAGAGCUACUAUCUCC,FAM76B,0.1008
AAUGCAAUGACUUCUCCAG,RIN1,0.02207
UAGGCUUUCGAGAUAAGUG,SLC37A1,-0.2595
UUAGUAACAUAGCCCUUCC,ZNF155,0.216
UUAGGUCUGCUAUAAACCC,ZDHHC17,-0.1426
UCUGUUGCGAGGAAAUACC,METTL16,0.5575
UAUCGGACACUCUUUGGAC,RBM4,-0.3543
UUAAUGUCCAGAGUCUUGU,DHRS4,-1.476
AUACUCAUAAGCCUUCAGC,KCNV2,-0.2294
UUGCAUACAAUGUCCAGAC,MRPL15,-1.08
UAAGGUCAAGGUGAGUCUG,GLRA2,-0.1558
UUCAUUAUAAUGUUCACGG,PTCHD4,-1.045
AAAGAUGACAGUUCGUGCU,PGLS,-0.08493
UGUUCCUGAAGUGAAGAAC,AGPAT2,0.1238
UUAAGUCUAACUGCUCCUG,DNALI1,0.014
AAAUAGUGAACCACAAUAC,C3orf80,1.112
UUUUGCGGUAUCCAAAUCU,LRR1,-0.6716
UUGGGACCUAGAAAUGCAG,HDGFRP3,-0.3773
UAAAUAAGGGUCAAUAUUC,SGPP2,0.4776